According to article PMC5026484:
These are yes or no findings as the source states them, for the method shown.

Target: T1, bMERB domain (Rab binding domain) of Mical-1, residues 918-1067 (human) (UniProt Q8TDZ2)
T1 sequence: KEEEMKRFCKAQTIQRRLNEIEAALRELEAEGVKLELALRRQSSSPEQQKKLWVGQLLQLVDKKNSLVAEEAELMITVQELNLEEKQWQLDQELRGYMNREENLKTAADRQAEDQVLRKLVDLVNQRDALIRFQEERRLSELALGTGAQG
Experiment: SEC; analytical size exclusion chromatography of the bMERB domain alone (112.5 µM); apparent size from the retention; both purified

binding: no binding
Substance: bMERB domain (Rab binding domain) of Mical-1, residues 918-1067 (from UniProt Q8TDZ2 918-1067) (domain or fragment)
